Measured data: PubChem BioAssay AID686943 (Drosophila RNAi Screening Center, 2013)

- Assay: 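Fly genes whose loss alters ERK activation after insulin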 (primary screen)
- System: Drosophila S2R+ haemocyte-like cells expressing YFP-tagged ERK (Rolled)
- Knock-down reagent: long dsRNA against Drosophila genes
- Challenge: insulin stimulation versus unstimulated cells; dose and duration not given
- Measured: 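Antibody staining for doubly phosphorylated ERK divided by ERK-YFP signal, as plate z-scores, in insulin-treated and untreated cells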
- Direction: replicate 1, z-score of dpERK with insulin and replicate 2, z-score of dpERK with insulin: higher = more active ERK per ERK-YFP after insulin; replicate 1, z-score of dpERK under basal conditions: higher = more basal active ERK per ERK-YFP; replicate 1, z-score of ERK-YFP with insulin: higher = more YFP-tagged ERK signal
The deposit covers about 23,000 reagents; shown is an unselected part of those with a known target gene and a result. 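Extra replicates exist only for a retested subset of genes; insulin dose and duration not given; both raised and lowered dpERK matter.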 Reagents against one gene are numbered here. The record does not give: the amount of reagent, the time to read-out.

no.	gene	reagent no.	replicate 1, z-score of dpERK with insulin	replicate 2, z-score of dpERK with insulin	replicate 1, z-score of dpERK under basal conditions	replicate 1, z-score of ERK-YFP with insulin
1	frj	1	-0.7	0.32	-0.99	0.09
2	CG30356	1	-0.21	0.06	-0.69	0.19
3	tap	1	0.1	1.45	-0.15	-0.41
4	Reph	1	0.25	0.58	10.3	0.44
5	Reph	2	-0.5	-0.57	-1.46	0.74
6	Ankle2	1	1.25	0.46	0.06	-0.39
7	Ankle2	2	0.29	0.57	1.09	0.4
8	CG13995	1	1.17	-0.25	2.25	-0.43
9	CG13995	2	0.8	0.45	0.25	-0.12
10	CG13995	3	1.59	1.4	0.28	-0.2
11	CG11630	1	-1	-0.55	0.06	0.73
12	CG1824	1	0.19	0.51	0.14	-0.1
13	Fer2LCH	1	-0.44	-0.22	0.67	1.74
14	eRF1	1	0.08	-0.02	-1.15	0.11
15	Pi4KIIIalpha	1	-1.14	-1.03	-1.2	-0.09
16	CG9682	1	-0.15	-0.59	-0.15	-1.03
17	CG13229	1	-0.05	-0.59	-0.45	0.1
18	Trmt112	1	0.69	-0.08	-0.6	0.7
19	CG42402	1	-0.46	-0.11	-0.21	0.52
20	eIF4A	1	-2.54	-0.84	-0.77	0.98
21	CG32137	1	-0.98	-0.23	0.27	-0.68
22	CG32137	2	-4.04	-2.43	-0.97	0.27
23	mdu	1	-4.77	-1.14	0.06	-3.9

3 entries from above, showing only “replicate 1, z-score of ERK-YFP with insulin”:
CG1824: -0.1
Fer2LCH: 1.74
eRF1: 0.11
